Results: PMC8594130
No constants are given. Whether binding was seen depends on the method and setting. Binding seen in cells or lysates may run through a third protein. Some entries that bind do so weakly or less than the wild type.

Amino acid sequences for entries named in this document (tags omitted).
UniProt Q61188: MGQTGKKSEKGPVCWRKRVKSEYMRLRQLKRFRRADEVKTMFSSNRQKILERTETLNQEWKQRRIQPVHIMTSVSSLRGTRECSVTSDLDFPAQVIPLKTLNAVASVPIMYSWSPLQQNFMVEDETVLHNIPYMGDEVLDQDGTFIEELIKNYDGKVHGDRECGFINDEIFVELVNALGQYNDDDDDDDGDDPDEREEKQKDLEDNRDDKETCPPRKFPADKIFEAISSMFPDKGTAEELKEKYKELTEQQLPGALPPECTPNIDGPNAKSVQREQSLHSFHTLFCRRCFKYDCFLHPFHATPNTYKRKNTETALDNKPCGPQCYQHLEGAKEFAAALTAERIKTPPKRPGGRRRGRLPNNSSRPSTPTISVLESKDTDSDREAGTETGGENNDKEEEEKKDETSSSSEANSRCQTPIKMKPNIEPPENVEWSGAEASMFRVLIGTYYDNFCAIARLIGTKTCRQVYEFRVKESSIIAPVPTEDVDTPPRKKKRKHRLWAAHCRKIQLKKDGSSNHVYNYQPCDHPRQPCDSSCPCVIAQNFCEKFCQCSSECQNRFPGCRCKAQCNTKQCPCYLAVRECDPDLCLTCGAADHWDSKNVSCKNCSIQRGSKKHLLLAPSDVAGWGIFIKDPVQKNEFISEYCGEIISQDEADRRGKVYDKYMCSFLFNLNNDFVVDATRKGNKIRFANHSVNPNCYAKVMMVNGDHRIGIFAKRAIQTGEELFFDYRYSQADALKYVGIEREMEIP

Target: enhancer of zeste homolog 2 (EZH2) (mouse (endogenous in primary vascular SMCs)) (UniProt Q61188)
Test: co-IP; SMC lysate incubated with EZH2 antibody (ab191080) and protein A/G beads at 4 °C overnight; precipitate analysed by Western blot for RIG-I

B1: retinoic acid-inducible gene-I (RIG-I) (protein, UniProt Q6Q899 1-926)
chain: MTAEQRQNLQAFRDYIKKILDPTYILSYMSSWLEDEEVQYIQAEKNNKGPMEAASLFLQYLLKLQSEGWFQAFLDALYHAGYCGLCEAIESWDFQKIEKLEEHRLLLRRLEPEFKATVDPNDILSELSECLINQECEEIRQIRDTKGRMAGAEKMAECLIRSDKENWPKVLQLALEKDNSKFSELWIVDKGFKRAESKADEDDGAEASSIQIFIQEEPECQNLSQNPGPPSEASSNNLHSPLKPRNYQLELALPAKKGKNTIICAPTGCGKTFVSLLICEHHLKKFPCGQKGKVVFFANQIPVYEQQATVFSRYFERLGYNIASISGATSDSVSVQHIIEDNDIIILTPQILVNNLNNGAIPSLSVFTLMIFDECHNTSKNHPYNQIMFRYLDHKLGESRDPLPQVVGLTASVGVGDAKTAEEAMQHICKLCAALDASVIATVRDNVAELEQVVYKPQKISRKVASRTSNTFKCIISQLMKETEKLAKDVSEELGKLFQIQNREFGTQKYEQWIVGVHKACSVFQMADKEEESRVCKALFLYTSHLRKYNDALIISEDAQMTDALNYLKAFFHDVREAAFDETERELTRRFEEKLEELEKVSRDPSNENPKLRDLYLVLQEEYHLKPETKTILFVKTRALVDALKKWIEENPALSFLKPGILTGRGRTNRATGMTLPAQKCVLEAFRASGDNNILIATSVADEGIDIAECNLVILYEYVGNVIKMIQTRGRGRARDSKCFLLTSSADVIEKEKANMIKEKIMNESILRLQTWDEMKFGKTVHRIQVNEKLLRDSQHKPQPVPDKENKKLLCGKCKNFACYTADIRVVETSHYTVLGDAFKERFVCKPHPKPKIYDNFEKKAKIFCAKQNCSHDWGIFVRYKTFEIPVIKIESFVVEDIVSGVQNRHSKWKDFHFERIQFDPAEMSV
- binding: binds
